PubChem BioAssay AID504804 | Drosophila RNAi Screening Center, 2011

- Screen: 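Fly genes whose loss lessens doxorubicin-driven cell death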 (primary screen)
- Cells: Drosophila Kc cells
- Knock-down reagent: long dsRNA against Drosophila genes, 0.5 µg dsRNA per well
- Duration: 96 h (48 h knock-down, then 48 h drug)
- Challenge: doxorubicin 5 µg/ml for 48 h, added 48 h after dsRNA
- Measured: 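Luminescent ATP counts per replicate, not normalised, reflecting viable cells after 48 h dsRNA knock-down followed by 48 h of 5 µg/ml doxorubicin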
- Reading the numbers: raw ATP luminescence: higher = more viable cells, protection from doxorubicin
- Hit rule: 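z-score of 2 or more over plate mean in both duplicates, retained only when retests and separate dsRNAs confirm the protection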
In all, the deposit lists about 19,000 reagents; shown is an unselected part of those with a known target gene and a result. Over the whole deposit, 47 (0.25%) got an active call. 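Signals are raw, not normalised; exact z-scores behind calls not deposited; actives needed confirmation, so some wells reaching 2 SD are inactive.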 A number with no mark means an inactive call. Reagent sequences are not shown.

{"target": "CG42327", "amplicon": "DRSC14936", "raw ATP luminescence, replicate 1": 43547, "raw ATP luminescence, replicate 2": 54383}
{"target": "CG42327", "amplicon": "DRSC14937", "raw ATP luminescence, replicate 1": 57737, "raw ATP luminescence, replicate 2": 51270}
{"target": "CG13045", "amplicon": "DRSC09926", "raw ATP luminescence, replicate 1": 60493, "raw ATP luminescence, replicate 2": 46167}
{"target": "BckdhA (Branched chain keto acid dehydrogenase E1 subunit alpha)", "amplicon": "DRSC16395", "raw ATP luminescence, replicate 1": 65133, "raw ATP luminescence, replicate 2": 49080}
{"target": "Bhmt (Betaine-homocysteine S-methyltransferase)", "amplicon": "DRSC02079", "raw ATP luminescence, replicate 1": 51653, "raw ATP luminescence, replicate 2": 63673}
{"target": "l(3)62Be (retired record)", "amplicon": "DRSC08231", "raw ATP luminescence, replicate 1": 52300, "raw ATP luminescence, replicate 2": 60000}
{"target": "Cdk12 (Cyclin-dependent kinase 12)", "amplicon": "DRSC11836", "raw ATP luminescence, replicate 1": 24893, "raw ATP luminescence, replicate 2": 20833}
{"target": "CG32668", "amplicon": "DRSC18879", "raw ATP luminescence, replicate 1": 1.99e5, "raw ATP luminescence, replicate 2": 2.56e5}
{"target": "CG33640", "amplicon": "DRSC01324", "raw ATP luminescence, replicate 1": 2.69e5, "raw ATP luminescence, replicate 2": 3.07e5}
{"target": "mRpS18A (mitochondrial ribosomal protein S18A)", "amplicon": "DRSC14369", "raw ATP luminescence, replicate 1": 60883, "raw ATP luminescence, replicate 2": 58373}
{"target": "CG5339", "amplicon": "DRSC04496", "raw ATP luminescence, replicate 1": 65753, "raw ATP luminescence, replicate 2": 62187}
{"target": "shrb (shrub)", "amplicon": "DRSC07061", "raw ATP luminescence, replicate 1": 30330, "raw ATP luminescence, replicate 2": 33423}
{"target": "CG34297", "amplicon": "DRSC12410", "raw ATP luminescence, replicate 1": 30070, "raw ATP luminescence, replicate 2": 48757}
{"target": "Amph (Amphiphysin)", "amplicon": "DRSC07578", "raw ATP luminescence, replicate 1": 59320, "raw ATP luminescence, replicate 2": 56083}
{"target": "CG32391", "amplicon": "DRSC08865", "raw ATP luminescence, replicate 1": 1.05e5, "raw ATP luminescence, replicate 2": 1.49e5}
{"target": "CG34454", "amplicon": "DRSC07864", "raw ATP luminescence, replicate 1": 1.65e5, "raw ATP luminescence, replicate 2": 1.09e5}
{"target": "Cpr30B (Cuticular protein 30B)", "amplicon": "DRSC02728", "raw ATP luminescence, replicate 1": 45830, "raw ATP luminescence, replicate 2": 70233}
{"target": "Alg3 (ALG3, alpha-1,3- mannosyltransferase)", "amplicon": "DRSC04700", "raw ATP luminescence, replicate 1": 69657, "raw ATP luminescence, replicate 2": 51140}
{"target": "Gr85a (Gustatory receptor 85a)", "amplicon": "DRSC12760", "raw ATP luminescence, replicate 1": 75470, "raw ATP luminescence, replicate 2": 73147}
{"target": "CalpC (Calpain C)", "amplicon": "DRSC19873", "raw ATP luminescence, replicate 1": 3.15e5, "raw ATP luminescence, replicate 2": 2.93e5}
{"target": "CG9426", "amplicon": "DRSC03219", "raw ATP luminescence, replicate 1": 39673, "raw ATP luminescence, replicate 2": 47420}
{"target": "mRNA-cap (mRNA-capping-enzyme)", "amplicon": "DRSC19789", "raw ATP luminescence, replicate 1": 3.77e5, "raw ATP luminescence, replicate 2": 3.13e5}
{"target": "Pi4KIIIalpha (Phosphatidylinositol 4-kinase III alpha)", "amplicon": "DRSC18655", "raw ATP luminescence, replicate 1": 38880, "raw ATP luminescence, replicate 2": 47830}
{"target": "GstE8 (Glutathione S transferase E8)", "amplicon": "DRSC06678", "raw ATP luminescence, replicate 1": 47613, "raw ATP luminescence, replicate 2": 57263}
{"target": "Prim1 (DNA primase subunit 1)", "amplicon": "DRSC11137", "raw ATP luminescence, replicate 1": 68493, "raw ATP luminescence, replicate 2": 74247}
{"target": "HmgD (High mobility group protein D)", "amplicon": "DRSC04619", "raw ATP luminescence, replicate 1": 30733, "raw ATP luminescence, replicate 2": 38510}
{"target": "pcs (parcas)", "amplicon": "DRSC07042", "raw ATP luminescence, replicate 1": 67663, "raw ATP luminescence, replicate 2": 47027}
{"target": "Ugt302C1 (UDP-glycosyltransferase family 302 member C1)", "amplicon": "DRSC15353", "raw ATP luminescence, replicate 1": 48047, "raw ATP luminescence, replicate 2": 23240}

3 entries from above, sorted by “raw ATP luminescence, replicate 1”, high to low:
{"target": "Prim1 (DNA primase subunit 1)", "amplicon": "DRSC11137", "raw ATP luminescence, replicate 1": 68493, "raw ATP luminescence, replicate 2": 74247}
{"target": "pcs (parcas)", "amplicon": "DRSC07042", "raw ATP luminescence, replicate 1": 67663, "raw ATP luminescence, replicate 2": 47027}
{"target": "HmgD (High mobility group protein D)", "amplicon": "DRSC04619", "raw ATP luminescence, replicate 1": 30733, "raw ATP luminescence, replicate 2": 38510}
